These are yes or no findings as the source states them, for the method shown. Binding calls can cover weak binding; strength is not graded here.

The chains behind the UniProt entries cited, without tags or fusion partners. Where a name states a change or a piece, a line headed by the entry shows the natural chain unless it says otherwise. Residues count along the entry.
UniProt P40616, residues 15-181: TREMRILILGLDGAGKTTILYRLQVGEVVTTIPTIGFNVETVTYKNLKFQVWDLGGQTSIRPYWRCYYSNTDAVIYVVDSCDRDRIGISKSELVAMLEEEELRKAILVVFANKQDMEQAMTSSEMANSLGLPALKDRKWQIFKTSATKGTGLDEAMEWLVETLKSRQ
UniProt Q9Y6D6: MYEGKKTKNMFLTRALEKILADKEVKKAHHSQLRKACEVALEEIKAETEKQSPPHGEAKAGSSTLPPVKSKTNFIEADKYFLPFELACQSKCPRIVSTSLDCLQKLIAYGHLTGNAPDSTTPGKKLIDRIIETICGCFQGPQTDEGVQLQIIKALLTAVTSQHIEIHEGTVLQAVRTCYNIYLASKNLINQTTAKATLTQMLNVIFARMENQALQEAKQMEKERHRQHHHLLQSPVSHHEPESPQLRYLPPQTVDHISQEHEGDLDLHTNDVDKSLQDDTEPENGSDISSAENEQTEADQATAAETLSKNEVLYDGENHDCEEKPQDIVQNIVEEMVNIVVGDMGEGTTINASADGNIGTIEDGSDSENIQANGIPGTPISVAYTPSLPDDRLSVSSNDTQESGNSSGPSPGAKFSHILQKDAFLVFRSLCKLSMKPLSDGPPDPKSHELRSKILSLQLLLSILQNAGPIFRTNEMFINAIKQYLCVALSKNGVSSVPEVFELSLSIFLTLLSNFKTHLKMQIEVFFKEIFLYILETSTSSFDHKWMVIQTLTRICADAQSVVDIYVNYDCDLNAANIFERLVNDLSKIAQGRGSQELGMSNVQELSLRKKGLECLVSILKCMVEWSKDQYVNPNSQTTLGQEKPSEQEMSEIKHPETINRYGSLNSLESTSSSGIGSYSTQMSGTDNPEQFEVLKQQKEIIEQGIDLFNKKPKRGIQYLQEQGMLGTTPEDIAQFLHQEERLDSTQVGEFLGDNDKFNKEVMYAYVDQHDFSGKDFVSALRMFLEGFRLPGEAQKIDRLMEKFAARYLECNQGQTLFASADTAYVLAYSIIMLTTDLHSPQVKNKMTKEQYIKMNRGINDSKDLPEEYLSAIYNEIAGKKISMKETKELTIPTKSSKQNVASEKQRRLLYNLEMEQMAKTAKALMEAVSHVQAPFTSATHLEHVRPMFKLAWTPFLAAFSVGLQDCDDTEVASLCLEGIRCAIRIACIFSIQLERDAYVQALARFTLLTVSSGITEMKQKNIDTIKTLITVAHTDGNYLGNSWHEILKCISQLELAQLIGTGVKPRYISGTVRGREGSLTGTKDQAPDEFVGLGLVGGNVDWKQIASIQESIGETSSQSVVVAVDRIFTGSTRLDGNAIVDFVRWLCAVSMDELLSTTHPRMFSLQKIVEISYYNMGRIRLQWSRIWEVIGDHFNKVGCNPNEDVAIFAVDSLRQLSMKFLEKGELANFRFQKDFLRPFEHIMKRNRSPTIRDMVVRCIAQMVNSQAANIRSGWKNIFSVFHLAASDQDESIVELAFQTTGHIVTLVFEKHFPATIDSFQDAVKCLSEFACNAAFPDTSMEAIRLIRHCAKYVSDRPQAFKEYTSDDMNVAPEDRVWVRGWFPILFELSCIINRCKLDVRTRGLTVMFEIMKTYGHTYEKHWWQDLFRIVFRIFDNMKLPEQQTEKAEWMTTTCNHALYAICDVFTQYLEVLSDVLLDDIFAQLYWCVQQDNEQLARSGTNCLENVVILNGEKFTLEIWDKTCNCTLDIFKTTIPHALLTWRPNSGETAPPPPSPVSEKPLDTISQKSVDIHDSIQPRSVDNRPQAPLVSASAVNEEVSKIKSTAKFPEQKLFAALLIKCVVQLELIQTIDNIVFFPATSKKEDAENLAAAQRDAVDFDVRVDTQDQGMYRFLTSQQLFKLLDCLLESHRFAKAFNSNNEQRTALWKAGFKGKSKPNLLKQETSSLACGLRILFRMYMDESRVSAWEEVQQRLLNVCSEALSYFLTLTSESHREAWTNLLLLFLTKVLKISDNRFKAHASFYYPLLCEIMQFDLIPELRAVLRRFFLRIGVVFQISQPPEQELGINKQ

The test has as its target GST-Arl1^ΔN14 (human Arl1 residues 15–181), loaded with GMP-PNP or GDP (human) (UniProt P40616). As to the kind of experiment: pull-down; 2 nM GST-Arl1 loaded with GMP-PNP or GDP mixed with 2 nM His6-tagged protein in 500 μl buffer C (20 mM Tris-HCl, 110 mM KCl, 1 mM DTT, 0.1% Triton X-100) plus 5 mM MgCl2, 4°C 30 min, captured on glutathione-Sepharose; SDS-PAGE, Coomassie; both purified.
As to “BIG1 DCB domain truncated at the N terminus to residue 23 (from UniProt Q9Y6D6) (domain or fragment)”, the binding result is recorded as “binds”.
As for “BIG1 DCB domain truncated at the N terminus to residue 51 (from UniProt Q9Y6D6) (domain or fragment)”, the entry is “no binding”; as for “BIG1 DCB domain truncated at the N terminus to residue 61 (from UniProt Q9Y6D6) (domain or fragment)”, “no binding”.

Source of the values: article PMC4956616.
